Hit rate of the full screen: of about 300,000 compounds, about 3,700 (1.2%) were called active. The inconclusive results got no clear call from the source; some entries with a clear call stand among them for comparison. The call rests on the fitted dose curve; tested in HEK293 cells. Where the call is inconclusive, the potency comes from a doubtful curve fit.
assay: qHTS for Inhibitors of binding or entry into cells for Lassa Virus; settings: Lassa virus pseudotype entry inhibition, cell reporter; series mostly up to 37.9 µM; further: nearly all actives have a fitted effect of over 50% in size
Potency means the concentration at half of the fitted maximal effect.

Question: For `Cc1cccc(NC(=O)c2c(C)nc3ccccn23)c1`, which Potency is on record?
Answer: Its Potency is inconclusive: 22.4 µM [activator, single point].

Question: For `O=S(=O)(c1cccc(S(=O)(=O)N2CCC(Cc3ccccc3)CC2)c1)N1CCOCC1`, which Potency is on record?
Answer: Its Potency is “inactive”.

Question: For `CCOC(=O)c1cnc2c(-c3cccc(Br)c3)cnn2c1C`, which Potency is on record?
Answer: Its Potency is inconclusive: 0.891 µM [inhibitor, partial curve, poor fit].

Question: With `O=S(=O)(c1ccccc1)c1nc(-c2ccccc2F)oc1NCc1cccnc1` as the compound, how does the Potency read?
Answer: Its Potency is inconclusive: 1.26 µM [inhibitor, partial curve, poor fit].

Question: For `CCOc1ccc2[nH]c3ncccc3c(=O)c2c1`, which Potency is on record?
Answer: Its Potency is inconclusive: 35.5 µM [activator, single point].

Question: For `CCc1nnc(NC(=O)c2ccc(S(=O)(=O)N3CCc4ccccc4C3)cc2)s1`, which Potency is on record?
Answer: Its Potency is “inactive”.

Question: With `Cc1cccc(OCC(=O)Nc2cccc(O)c2)c1` as the compound, how does the Potency read?
Answer: Its Potency is inconclusive: 0.82 µM [activator, single point].

Question: With `COc1ccc(COc2cc(-c3cccc(OC)c3)nc3ccc(N)cc23)cc1` as the compound, how does the Potency read?
Answer: The Potency was inconclusive: 14.6 µM [inhibitor, partial curve, poor fit].

Question: For `O=C(O)C1CC(=O)N(c2ccc(F)cc2)C1` (centres undefined), which Potency is on record?
Answer: Its Potency is inconclusive: 4.11 µM [activator, full curve, poor fit].

Question: Which Potency does the source give for `COC(=O)c1ccc(NCc2cc(O)ccc2O)cc1` here?
Answer: The Potency was inconclusive: 8.91 µM [inhibitor, partial curve].

Question: For `CCOc1ccccc1N1CCN(CC(O)COc2ccc3c(C)cc(=O)oc3c2)CC1` (centres undefined), which Potency is on record?
Answer: The Potency was “inactive”.

Question: With `Cc1c(Cl)c(=O)oc2cc(OCC(=O)N3CCCC(C)C3)ccc12` (centres undefined) as the compound, how does the Potency read?
Answer: Its Potency is inconclusive: 3.55 µM [activator, single point].

Question: With `COC(=O)CC1SCCNC1=O` (centres undefined) as the compound, how does the Potency read?
Answer: Its Potency is inconclusive: 0.116 µM [inhibitor, full curve, poor fit].

Question: Which Potency does the source give for `COc1cccc(C(=O)CSc2nccn2C)c1` here?
Answer: Its Potency is “inactive”.

Question: For `CC1=CC(C)(C)n2c(O)c(N=NC(N)=S)c3c(C)ccc1c32`, which Potency is on record?
Answer: The Potency was “inactive”.

Question: Which Potency does the source give for `Cc1ccc(NC(=O)c2nc(S(C)(=O)=O)ncc2N(Cc2cccc(F)c2)Cc2ccco2)cc1C` here?
Answer: Its Potency is “inactive”.

Question: For `Cc1ccnc(NC(=O)CNC(=O)Cc2cccc3ccccc23)c1`, which Potency is on record?
Answer: The Potency was inconclusive: 35.5 µM [inhibitor, single point].

Question: With `CCc1ccc(NC(=O)CC2C(=O)N(c3cccc(C)c3)C(=O)N2Cc2cccc(OC)c2)cc1` (centres undefined) as the compound, how does the Potency read?
Answer: The Potency was inconclusive: 3.55 µM [inhibitor, full curve].

Question: For `COc1ccc(NC(=O)CCN2C(=O)C3CC=CCC3C2=O)cc1S(=O)(=O)N1CCCCC1` (centres undefined), which Potency is on record?
Answer: Its Potency is “inactive”.

Question: For `Cc1ccc(S(=O)(=O)N2CCCCC2CCNC(=O)C(=O)NCc2ccccc2)cc1` (centres undefined), which Potency is on record?
Answer: The Potency was inconclusive: 0.794 µM [inhibitor, full curve].

Question: With `Cc1cc(Cl)ccc1OCCCC(=O)NO` as the compound, how does the Potency read?
Answer: Its Potency is inconclusive: 11.2 µM [inhibitor, partial curve, poor fit].

Question: Which Potency does the source give for `COc1ccc(Nc2nc(N3CCCC3)c3ccccc3n2)cc1` here?
Answer: The Potency was inconclusive: 11.2 µM [inhibitor, partial curve, poor fit].

Question: With `Cc1cccc(C)c1NC(=O)COC(=O)c1c2c(nc3ccccc13)/C(=C\c1ccc3c(c1)OCO3)CCC2` as the compound, how does the Potency read?
Answer: The Potency was inconclusive: 1.26 µM [activator, single point].

Question: With `COc1ccc2cc3cc(C(=O)NCc4cccs4)oc3nc2c1` as the compound, how does the Potency read?
Answer: Its Potency is inconclusive: 0.891 µM [inhibitor, full curve, poor fit].

Question: Which Potency does the source give for `O=C(NCCN1CCOCC1)c1ccc(Cl)cc1` here?
Answer: Its Potency is inconclusive: 4.11 µM [activator, full curve].

Question: Which Potency does the source give for `Cc1ccccc1-n1c(C)nc2ccccc2c1=O` here?
Answer: Its Potency is “inactive”.

Question: With `COc1cc(CNCc2ccccn2)ccc1OCc1ccc(Cl)c(Cl)c1` as the compound, how does the Potency read?
Answer: Its Potency is inconclusive: 35.5 µM [inhibitor, single point].

Question: Which Potency does the source give for `CC(C)=C1C2CCC1C(C(=O)Nc1sc(C)c(-c3ccc(C(C)C)cc3)c1C(N)=O)C2C(=O)O` (centres undefined) here?
Answer: Its Potency is inconclusive: 18.4 µM [inhibitor, single point].

Question: Which Potency does the source give for `O/N=C/C1=C(Cl)c2ccccc2CC1` here?
Answer: Its Potency is inconclusive: 3.55 µM [inhibitor, single point].

Question: For `CN(CC(=O)Nc1ccc2c(c1)CCC2)CC(=O)Nc1ccccc1Br`, which Potency is on record?
Answer: Its Potency is “inactive”.

Question: For `COc1ccc(-n2nc(C(=O)Nc3ccc(OC)c(OC)c3)c3c4ccccc4n(C)c3c2=O)cc1`, which Potency is on record?
Answer: The Potency was inconclusive: 2.59 µM [activator, partial curve, poor fit].

Question: Which Potency does the source give for `CC1CCC(NC(=O)c2ccc3c(c2)N(Cc2ccccc2F)C(=O)c2ccccc2S3)CC1` (centres undefined) here?
Answer: Its Potency is inconclusive: 3.16 µM [inhibitor, partial curve, poor fit].

Question: For `CCCn1c(=N)c(C(=O)NC2CCCC2)cc2c(=O)n3cc(C)ccc3nc21`, which Potency is on record?
Answer: Its Potency is “inactive”.

Question: For `O=C(c1ccccc1)c1ccc(N2CCOCC2)c(F)c1`, which Potency is on record?
Answer: The Potency was inconclusive: 1.03 µM [activator, partial curve, poor fit].

Question: For `COC(=O)c1[nH]c2cc(OC)ccc2c1N`, which Potency is on record?
Answer: Its Potency is inconclusive: 35.5 µM [activator, partial curve, poor fit].

Question: For `CN(C)c1cc[n+](CC(=O)Nc2c(Cl)cc(Cl)cc2Cl)cc1`, which Potency is on record?
Answer: Its Potency is “inactive”.

Question: With `CCc1ccc(C(=O)Nc2nc3ccccc3[nH]2)cc1` as the compound, how does the Potency read?
Answer: Its Potency is inconclusive: 1.12 µM [inhibitor, full curve, poor fit].

Question: For `CC(C)(CO)NC12CC3CC(CC(C3)C1)C2`, which Potency is on record?
Answer: The Potency was inconclusive: 5.62 µM [activator, partial curve, poor fit].

Question: With `CNC(=S)Nc1cccc([N+](=O)[O-])c1` as the compound, how does the Potency read?
Answer: The Potency was “inactive”.

Question: With `Cc1cccc(NC(c2cccc(F)c2)c2ccc3ccc(C)nc3c2O)n1` (centres undefined) as the compound, how does the Potency read?
Answer: Its Potency is inconclusive: 5.62 µM [inhibitor, single point].

Question: With `COc1ccc(CCn2c(NN=C3CCCCC3)nc3c2c(=O)[nH]c(=O)n3C)cc1` as the compound, how does the Potency read?
Answer: Its Potency is inconclusive: 6.31 µM [inhibitor, single point].

Question: Which Potency does the source give for `COc1cccc(OCCSc2nnc3sc4ccccc4n23)c1` here?
Answer: Its Potency is inconclusive: 2.82 µM [activator, partial curve].

Question: With `COc1ccccc1C(=O)ON=C1c2ccccc2-c2ccccc21` as the compound, how does the Potency read?
Answer: The Potency was inconclusive: 20.6 µM [activator, partial curve, poor fit].

Question: For `O=C(Nc1ccc(Cl)cc1C(=O)c1ccccc1)c1ccccc1Br`, which Potency is on record?
Answer: The Potency was inconclusive: 35.5 µM [inhibitor, single point].

From PubChem BioAssay AID540256 (National Center for Advancing Translational Sciences (NCATS), 2011)
